Key:
Test in all cases: Alamar Blue cytotoxicity
HL-60 = format: cell-based, human
Protocol: The Alamar Blue assay was used to measure cell viability, as previously described. Adherent cells were seeded in 96-well plates at a density of 7 × 10^3 cells per well, and suspended cells were seeded at 3 × 10^4 cells per well. Drugs were added to each well after overnight incubation for adherent cells or immediately after seeding for suspension cells, and incubation continued for an additional 72 h. […] Four hours (for cell lines) or 24 h (for primary cultures) before the end of incubation, 20 μL of resazurin (30 μM) (Sigma‒Aldrich Co. St. Louis, MO, USA) was added to each well. The absorbance at 570 and 600 nm was measured using a SpectraMax 190 microplate reader (Molecular Devices, Sunnyvale, CA, USA).

4T1 = format: cell-based, mouse
Protocol: (§1) The Alamar Blue assay was used to measure cell viability, as previously described. Adherent cells were seeded in 96-well plates at a density of 7 × 10^3 cells per well, and suspended cells were seeded at 3 × 10^4 cells per well. Drugs were added to each well after overnight incubation for adherent cells or immediately after seeding for suspension cells, and incubation continued for an additional 72 h. The positive control included doxorubicin (Laboratorio IMA S.A.I.C., Buenos Aires, Argentina). Four hours (for cell lines) or 24 h (for primary cultures) before the end of incubation, 20 μL of resazurin (30 μM) (Sigma‒Aldrich Co. St. Louis, MO, USA) was added to each well. The absorbance at 570 and 600 nm was measured using a SpectraMax 190 microplate reader (Molecular Devices, Sunnyvale, CA, USA).

B16-F10 = format: cell-based, mouse
Protocol: as §1

MCF-7 = format: cell-based, human
Protocol: as §1

MDA-MB-231 = format: cell-based, human
Protocol: as §1

HCT116 = format: cell-based, human
Protocol: as §1

U-87 MG = format: cell-based, human
Protocol: as §1

KG-1a = format: cell-based, human
Protocol: as §1

NB4 = format: cell-based, human
Protocol: as §1

SCC-25 = format: cell-based, human
Protocol: as §1

CAL 27 = format: cell-based, human
Protocol: as §1

Jurkat = format: cell-based, human
Protocol: as §1

HSC-3 = format: cell-based, human
Protocol: as §1

THP-1 = format: cell-based, human
Protocol: as §1

K-562 = format: cell-based, human
Protocol: as §1

SCC-9 = format: cell-based, human
Protocol: as §1

A549 = format: cell-based, human
Protocol: as §1

A-375 = format: cell-based, human
Protocol: as §1

SCC4 = format: cell-based, human
Protocol: as §1

PANC-1 = format: cell-based, human
Protocol: as §1

HepG2 = format: cell-based, human
Protocol: as §1

DU 145 = format: cell-based, human
Protocol: as §1

OVCAR-3 = format: cell-based, human
Protocol: as §1

F[P-](F)(F)(F)(F)F.O=c1cc[nH]c([S][Ru+])n1.c1ccc(-c2ccccn2)nc1.c1ccc(P(c2ccccc2)c2ccccc2)cc1.c1ccc(P(c2ccccc2)c2ccccc2)cc1 [Complex 1, trans-[Ru(2TU)(PPh3)2(bipy)]PF6]
Selectivity index (HL-60; IC50 BJ/IC50 HL-60): 2.81
Selectivity index (HL-60; IC50 MRC-5/IC50 HL-60): 3.10
Selectivity index (HL-60; IC50 PBMC/IC50 HL-60): 2.49
Selectivity index (4T1; IC50 BJ/IC50 4T1): 5.77
Selectivity index (4T1; IC50 MRC-5/IC50 4T1): 1.51
Selectivity index (4T1; IC50 PBMC/IC50 4T1): 1.21
Selectivity index (B16-F10; IC50 BJ/IC50 B16-F10): 1.50
Selectivity index (B16-F10; IC50 MRC-5/IC50 B16-F10): 5.82
Selectivity index (B16-F10; IC50 PBMC/IC50 B16-F10): 4.68
Selectivity index (MCF-7; IC50 BJ/IC50 MCF-7): 4.53
Selectivity index (MCF-7; IC50 MRC-5/IC50 MCF-7): 1.92
Selectivity index (MCF-7; IC50 PBMC/IC50 MCF-7): 1.55
Selectivity index (MDA-MB-231; IC50 BJ/IC50 MDA-MB-231): 1.29
Selectivity index (MDA-MB-231; IC50 MRC-5/IC50 MDA-MB-231): 6.76
Selectivity index (MDA-MB-231; IC50 PBMC/IC50 MDA-MB-231): 5.43
Selectivity index (HCT116; IC50 BJ/IC50 HCT116): 2.33
Selectivity index (HCT116; IC50 MRC-5/IC50 HCT116): 3.73
Selectivity index (HCT116; IC50 PBMC/IC50 HCT116): 3.00
Selectivity index (U-87 MG; IC50 BJ/IC50 U-87 MG): 1.74
Selectivity index (U-87 MG; IC50 MRC-5/IC50 U-87 MG): 5.01
Selectivity index (U-87 MG; IC50 PBMC/IC50 U-87 MG): 4.03
Selectivity index (KG-1a; IC50 BJ/IC50 KG-1a): 2.35
Selectivity index (KG-1a; IC50 MRC-5/IC50 KG-1a): 3.71
Selectivity index (KG-1a; IC50 PBMC/IC50 KG-1a): 2.98
Selectivity index (NB4; IC50 BJ/IC50 NB4): 2.36
Selectivity index (NB4; IC50 MRC-5/IC50 NB4): 3.70
Selectivity index (NB4; IC50 PBMC/IC50 NB4): 2.97
Selectivity index (SCC-25; IC50 BJ/IC50 SCC-25): 3.74
Selectivity index (SCC-25; IC50 MRC-5/IC50 SCC-25): 2.33
Selectivity index (SCC-25; IC50 PBMC/IC50 SCC-25): 1.87
Selectivity index (CAL 27; IC50 BJ/IC50 CAL 27): 1.31
Selectivity index (CAL 27; IC50 MRC-5/IC50 CAL 27): 6.65
Selectivity index (CAL 27; IC50 PBMC/IC50 CAL 27): 5.35
Selectivity index (Jurkat; IC50 BJ/IC50 Jurkat): 2.49
Selectivity index (Jurkat; IC50 MRC-5/IC50 Jurkat): 3.49
Selectivity index (Jurkat; IC50 PBMC/IC50 Jurkat): 2.81
Selectivity index (HSC-3; IC50 BJ/IC50 HSC-3): 4.11
Selectivity index (HSC-3; IC50 MRC-5/IC50 HSC-3): 2.12
Selectivity index (HSC-3; IC50 PBMC/IC50 HSC-3): 1.70
Selectivity index (THP-1; IC50 BJ/IC50 THP-1): 2.34
Selectivity index (THP-1; IC50 MRC-5/IC50 THP-1): 3.73
Selectivity index (THP-1; IC50 PBMC/IC50 THP-1): 3.00
Selectivity index (K-562; IC50 BJ/IC50 K-562): 3.33
Selectivity index (K-562; IC50 MRC-5/IC50 K-562): 2.61
Selectivity index (K-562; IC50 PBMC/IC50 K-562): 2.10
Selectivity index (SCC-9; IC50 BJ/IC50 SCC-9): 2.16
Selectivity index (SCC-9; IC50 MRC-5/IC50 SCC-9): 4.02
Selectivity index (SCC-9; IC50 PBMC/IC50 SCC-9): 3.23
Selectivity index (A549; IC50 MRC-5/IC50 A549): 1.01
Selectivity index (A549; IC50 PBMC/IC50 A549): 0.81
Selectivity index (A-375; IC50 BJ/IC50 A-375): 1.48
Selectivity index (A-375; IC50 MRC-5/IC50 A-375): 5.88
Selectivity index (A-375; IC50 PBMC/IC50 A-375): 4.73
Selectivity index (SCC4; IC50 BJ/IC50 SCC4): 2.35
Selectivity index (SCC4; IC50 MRC-5/IC50 SCC4): 3.71
Selectivity index (SCC4; IC50 PBMC/IC50 SCC4): 2.98
Selectivity index (PANC-1; IC50 BJ/IC50 PANC-1): 4.65
Selectivity index (PANC-1; IC50 MRC-5/IC50 PANC-1): 1.87
Selectivity index (PANC-1; IC50 PBMC/IC50 PANC-1): 1.51
Selectivity index (HepG2; IC50 MRC-5/IC50 HepG2): 5.07
Selectivity index (HepG2; IC50 PBMC/IC50 HepG2): 4.08
Selectivity index (DU 145; IC50 BJ/IC50 DU 145): 3.74
Selectivity index (DU 145; IC50 MRC-5/IC50 DU 145): 2.33
Selectivity index (DU 145; IC50 PBMC/IC50 DU 145): 1.87
Selectivity index (OVCAR-3; IC50 BJ/IC50 OVCAR-3): 1.20
Selectivity index (OVCAR-3; IC50 MRC-5/IC50 OVCAR-3): 7.28
Selectivity index (OVCAR-3; IC50 PBMC/IC50 OVCAR-3): 5.86

From article PMC11148080, “Ru(II)-based complexes containing 2-thiouracil derivatives suppress liver cancer stem cells by targeting NF-κB and Akt/mTOR signaling” (Cell Death Discovery, 2024)
